The values below come from patent US20150361183A1.

The chains behind the UniProt entries cited, without tags or fusion partners. Residues count along the entry.
UniProt P01027, residues 955-1303: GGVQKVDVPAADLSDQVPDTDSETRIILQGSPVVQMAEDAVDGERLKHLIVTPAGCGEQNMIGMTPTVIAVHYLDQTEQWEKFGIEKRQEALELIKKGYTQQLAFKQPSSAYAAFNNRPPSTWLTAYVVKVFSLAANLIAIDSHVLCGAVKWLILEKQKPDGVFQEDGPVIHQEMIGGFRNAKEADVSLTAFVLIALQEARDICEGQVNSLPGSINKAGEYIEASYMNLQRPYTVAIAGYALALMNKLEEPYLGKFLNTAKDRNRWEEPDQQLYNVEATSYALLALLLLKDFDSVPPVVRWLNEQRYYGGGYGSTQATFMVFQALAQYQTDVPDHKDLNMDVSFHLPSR

Assay [1] concerns the target T1, CFHR5 (complement factor H-related protein 5), wild type (human), Q9BXR6.
T1 chain: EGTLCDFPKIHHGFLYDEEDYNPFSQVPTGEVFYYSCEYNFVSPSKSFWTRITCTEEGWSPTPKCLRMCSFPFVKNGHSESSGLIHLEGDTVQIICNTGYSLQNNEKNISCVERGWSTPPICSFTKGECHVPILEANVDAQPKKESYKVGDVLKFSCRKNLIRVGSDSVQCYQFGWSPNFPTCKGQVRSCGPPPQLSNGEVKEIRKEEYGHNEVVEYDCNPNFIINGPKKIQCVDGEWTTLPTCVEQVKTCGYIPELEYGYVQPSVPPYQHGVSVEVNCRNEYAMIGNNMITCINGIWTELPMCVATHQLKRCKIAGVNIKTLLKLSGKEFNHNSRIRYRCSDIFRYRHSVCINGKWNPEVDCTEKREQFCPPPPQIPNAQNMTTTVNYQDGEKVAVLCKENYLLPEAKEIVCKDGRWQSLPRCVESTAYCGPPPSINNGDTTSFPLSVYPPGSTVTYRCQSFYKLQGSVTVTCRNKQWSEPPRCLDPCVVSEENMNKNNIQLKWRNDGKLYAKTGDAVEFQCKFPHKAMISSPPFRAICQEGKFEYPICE
Kind of assay: serum immunoprecipitation with anti-CFHR5, western blot with MBC125. The note with it: remark: other sources report otherwise.

The target in assay [2] is mouse complement C3 bound to the glomerular basement membrane (mouse) (UniProt P01027). The assay can be described thus: glomerular CFHR5 staining in vivo (30, 15, 7.5 and 3.8 µg doses) and ex vivo on kidney sections.
The target is the same in assay [3]. Kind of assay: glomerular immunofluorescence, Cfh-/- mice.
The target is the same in assay [4]. Kind of assay: glomerular immunofluorescence, repeat with a separate protein batch.
For assay [5], the target named is T1, CFHR5 (complement factor H-related …). The assay can be described thus: sandwich ELISA on serum, anti-CFHR5 capture and anti-CFHR2 detection. The note with it: remark: other sources report otherwise.

Where a chain is given by its changes, count along the chain named. No constants are given. Whether binding was seen depends on the method and setting. Some binding calls cover weakened binding; strength is not graded here.

B1: CFHR1 (complement factor H-related protein 1), purified from serum, Q03591 19-330 (protein)
chain: EATFCDFPKINHGILYDEEKYKPFSQVPTGEVFYYSCEYNFVSPSKSFWTRITCTEEGWSPTPKCLRLCFFPFVENGHSESSGQTHLEGDTVQIICNTGYRLQNNENNISCVERGWSTPPKCRSTDTSCVNPPTVQNAHILSRQMSKYPSGERVRYECRSPYEMFGDEEVMCLNGNWTEPPQCKDSTGKCGPPPPIDNGDITSFPLSVYAPASSVEYQCQNLYQLEGNKRITCRNGQWSEPPKCLHPCVISREIMENYNIALRWTAKQKLYLRTGESAEFVCKRGYRLSSRSHTLRTTCWDGKLEYPTCAKR
Take B1: the binding result in assay [1] was “binds”.

B2: CFHR5 (complement factor H-related protein 5), wild type (protein)
chain: T1 chain
Take B2: the binding result in assay [2] and in assay [3] was “binds” in each case.

B3: CFHR5 dimer mutant (Tyr34Ser, Ser36Tyr, Tyr39Glu) (protein)
chain: T1 chain with Y34S, S36Y, Y39E
Consider B3, for which the binding entry in assay [4] and in assay [3] was “binds” each time.

B4: CFHR2 (complement factor H-related protein 2), native in serum, P36980 19-270 (protein)
chain: EAMFCDFPKINHGILYDEEKYKPFSQVPTGEVFYYSCEYNFVSPSKSFWTRITCAEEGWSPTPKCLRLCFFPFVENGHSESSGQTHLEGDTVQIICNTGYRLQNNENNISCVERGWSTPPKCRSTISAEKCGPPPPIDNGDITSFLLSVYAPGSSVEYQCQNLYQLEGNNQITCRNGQWSEPPKCLDPCVISQEIMEKYNIKLKWTNQQKLYSRTGDIVEFVCKSGYHPTKSHSFRAMCQNGKLVYPSCEEK
With B4, the binding entry in assay [5] is on record as “binds”.
